Test results taken from patent publication US20100016285A1, “HETEROCYCLIDENE-N-(ARYL) ACETAMIDE DERIVATIVE” (MOCHIDA PHARMACEUTICAL CO., LTD., priority 2007, published 2010).
For at least one compound, name, drawing or mass did not settle the structure.

Amino acid sequences for entries named in this document (tags omitted).
UniProt Q8NER1, whole entry: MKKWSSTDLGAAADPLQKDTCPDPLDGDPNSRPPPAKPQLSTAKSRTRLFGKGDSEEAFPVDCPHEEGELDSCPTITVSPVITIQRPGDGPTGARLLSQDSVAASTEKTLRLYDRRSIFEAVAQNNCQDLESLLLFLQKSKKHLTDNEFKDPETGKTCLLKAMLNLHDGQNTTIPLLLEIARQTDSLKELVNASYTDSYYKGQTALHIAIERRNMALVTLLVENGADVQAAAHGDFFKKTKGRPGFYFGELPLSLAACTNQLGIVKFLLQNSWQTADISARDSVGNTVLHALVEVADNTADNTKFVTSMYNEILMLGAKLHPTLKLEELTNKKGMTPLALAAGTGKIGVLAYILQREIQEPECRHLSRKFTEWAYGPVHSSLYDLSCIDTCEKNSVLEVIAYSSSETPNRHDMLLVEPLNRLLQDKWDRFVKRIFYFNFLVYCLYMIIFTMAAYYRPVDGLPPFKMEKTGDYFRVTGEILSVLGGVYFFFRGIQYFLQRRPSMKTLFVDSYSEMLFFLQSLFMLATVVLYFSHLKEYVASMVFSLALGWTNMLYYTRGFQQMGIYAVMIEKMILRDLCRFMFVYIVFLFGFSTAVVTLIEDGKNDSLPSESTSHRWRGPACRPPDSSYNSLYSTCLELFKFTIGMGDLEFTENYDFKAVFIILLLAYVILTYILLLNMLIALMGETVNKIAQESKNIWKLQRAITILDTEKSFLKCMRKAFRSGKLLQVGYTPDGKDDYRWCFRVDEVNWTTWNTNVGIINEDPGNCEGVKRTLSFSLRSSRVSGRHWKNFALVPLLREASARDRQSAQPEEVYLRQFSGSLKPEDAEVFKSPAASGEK

Molecular target: T1, human TRPV1 (Homo sapiens, UniProt Q8NER1)
T1 construct: expressed in transfected cells; host or cells: CHO-K1 cells, pCAGGS vector, clones selected by limiting dilution
Experiment: Capsaicin-induced Ca influx in transformed CHO cells, FDSS-6000 (b-1), A2 value
Assay type: cell-based
Conditions: concentration shifting the capsaicin concentration-reaction curve two times rightward; CHO cells expressing TRPV1
Source text: (1) Measurement of Capsaicin-Induced Ca Influx in a Transformed CHO Cell Line Expressing Human TRPV1
(a) Establishment of a Transformed CHO Cell Line Expressing Human and Rat TRPV1
Human and rat vanilloid receptor 1 (hTRPV1 and rTRPV1) cDNA was cloned from human brain and rat dorsal root ganglion, respectively. The cloned TRPV1 cDNA was incorporated in a pCAGGS vector. The vector was introduced to a CHO-K1 cell line, thus performing transformation. Clones obtained by limiting dilution were stimulated with capsaicin. Clones with a high responsiveness were selected using an increase in the Ca concentration as an indicator. The selected clones were used for the following experiment.
(b-1) Measurement of Ca Influx using FDSS-6000
The transformed CHO cells expressing human or rat TRPV1 were seeded in a 96-well plate (with black walls and transparent bottoms, manufactured by Greiner) at a density of 40,000 cells per well. The cells were cultured at 37° C. in 5% CO2 atmosphere for one night. A loading solution of FLIPR Calcium 3 assay kit (manufactured by Molecular Devices Corporation) containing 2.5 mmol/L of probenecid was then added to each of the wells in the same amount as the culture medium, and the cells were cultured at 37° C. for 60 minutes. For three minutes after the cells were stimulated with capsaicin (1 nmol/L to 1 μmol/L), the change of the intracellular Ca concentration was measured using FDSS-6000 (λex: 480 nm, λem: […], manufactured by Hamamatsu Photonics K.K.). The integrated values of the increase rate of the intracellular Ca concentration were calculated for a group treated with the compounds of the present invention and a group treated with a vehicle, thus allowing capsaicin concentration-reaction curves to be obtained. A concentration (A2 value) of each of the compounds of the present invention, at which the capsaicin concentration-reaction curve obtained when the cells were treated with the vehicle was shifted two times rightward, was calculated. The inhibitory effects of the test compounds were compared using this value as an indicator.

Structure (SMILES) | A2 value
O=C(/C=C1\CCCOc2cc(C(F)(F)F)ccc21)Nc1ccc2c(c1)NC(=O)C(N1CC[C@@H](CO)C1)C2 (stereo partly drawn) [EXAMPLE 49, (E)-2-(8-trifluoromethyl-3,4-dihydrobenzo[b]oxepin-5(2H)-ylidene)-N-(3-((2S)-hydroxymethylpyrrolidin-1-yl)-3,4-dihydro-2(1H)-quinolinon-7-yl)acetamide] | A (A2 value of less than 100 nM)
CN(C1CCCCC1)C1Cc2ccc(NC(=O)/C=C3\CCCOc4cc(C(F)(F)F)ccc43)cc2NC1=O (stereo not shown) [EXAMPLE 51, (E)-2-(8-trifluoromethyl-3,4-dihydrobenzo[b]oxepin-5(2H)-ylidene)-N-(3-(N-methyl-N-cyclohexylamino)-3,4-dihydro-2(1H)-quinolinon-7-yl)acetamide] | B (A2 value of 100 nM or more)
CCN(CC)C1Cc2ccc(NC(=O)/C=C3\CCCOc4cc(C(F)(F)F)ccc43)cc2NC1=O (stereo not shown) [EXAMPLE 43, (E)-2-(8-trifluoromethyl-3,4-dihydrobenzo[b]oxepin-5(2H)-ylidene)-N-(3-(N,N-diethylamino)-3,4-dihydro-2(1H)-quinolinon-7-yl)acetamide] | A (A2 value of less than 100 nM)
CN1Cc2ccc(NC(=O)/C=C3\CCCOc4cc(C(F)(F)F)ccc43)cc2NC1=O [EXAMPLE 14, (E)-2-(8-trifluoromethyl-3,4-dihydrobenzo[b]oxepin-5(2H)-ylidene)-N-(3-methyl-3,4-dihydro-2(1H)-quinazolinon-7-yl)acetamide] | A (A2 value of less than 100 nM)
O=C(/C=C1\CCCOc2cc(C(F)(F)F)ccc21)Nc1ccc2c(c1)NC(=O)C(N1CCCCC1)C2 (stereo not shown) [EXAMPLE 31, (E)-2-(8-trifluoromethyl-3,4-dihydrobenzo[b]oxepin-5(2H)-ylidene)-N-(3-(1-piperidinyl)-3,4-dihydro-2(1H)-quinolinon-7-yl)acetamide] | A (A2 value of less than 100 nM)
COC[C@@H]1CCN(C2Cc3ccc(NC(=O)/C=C4\CCCOc5cc(C(F)(F)F)ccc54)cc3NC2=O)C1 (stereo partly drawn) [EXAMPLE 50, (E)-2-(8-trifluoromethyl-3,4-dihydrobenzo[b]oxepin-5(2H)-ylidene)-N-(3-((2S)-methoxymethylpyrrolidin-1-yl)-3,4-dihydro-2(1H)-quinolinon-7-yl)acetamide] | A (A2 value of less than 100 nM)
CC1(C)C/C(=C\C(=O)Nc2ccc3c(c2)NC(=O)C(N2CCOCC2)C3)c2ccc(C(F)(F)F)cc2O1 (stereo not shown) [EXAMPLE 33, (E)-2-(7-trifluoromethyl-2,2-dimethylchroman-4-ylidene)-N-(3-(4-morpholinyl)-3,4-dihydro-2(1H)-quinolinon-7-yl)acetamide] | A (A2 value of less than 100 nM)
